Experimental data from patent US8927728B2, “Dipeptide acetylene conjugates and a method for photocleavage of double strand DNA by dipeptide acetylene conjugates” (The Florida State University Research Foundation, Inc., priority 2011, dated 2015).

What was measured:
[1] = Singlet excitation lifetime (TCSPC); format: physicochemical; details: excited at 295 nm
[2] = Fluorescence quenching by triethylamine (Stern-Volmer); format: physicochemical; details: Et3N as a quencher
Experimental: The fluorescence quenching by triethylamine (Et3N) was tested in order to gauge relative efficiencies of these compounds as DNA photo-oxidizers. […] The measured singlet lifetimes allowed us to determine the quenching rate constant, kq, which in this system, should be very close in magnitude to the rate of electron transfer, kET. The 2-3-fold increase in the rate of electron transfer from Et3N to excited singlet state of the meta- and ortho-isomers in comparison to the para-isomer is consistent with the well-known photochemical ortho, meta effect of an acceptor substituent. See Zimmerman, H. E., The Meta Effect in Organic Photochemistry: Mechanistic and Exploratory Organic Photochemistry, J. Am. Chem. Soc., 1995, 117, 8988-8991. doi: 10.1021/ja00140a014 and Zimmerman, H. E.; Alabugin, I. V. J. Am. Chem. Soc. 2001, […]. doi: 10.1021/ja002402c.

Row | SMILES | τ (singlet lifetime) [1] | Ksv (Stern-Volmer quenching constant) [2] | Ksv (Stern-Volmer quenching constant) ([2]; listed as meta isomer (4))
1 | CC(=O)Nc1cccc(C#Cc2c(F)c(F)nc(F)c2F)c1 [(4) (meta), N-(3-((Perfluoropyridin-4-yl)ethynyl)phenyl)acetamide] | 3.35 ± 9.30 × 10^−3 ns | 45.5 M⁻¹ | 45.51 M⁻¹
2 | CC(=O)Nc1ccccc1C#Cc1c(F)c(F)nc(F)c1F [(5) (ortho), N-(2-((Perfluoropyridin-4-yl)ethynyl)phenyl) acetamide] | 1.34 ± 3.52 × 10^−3 ns | 19.1 M⁻¹ | –
3 | CC(=O)Nc1ccc(C#Cc2c(F)c(F)nc(F)c2F)cc1 [(3) (para), N-(4-((Perfluoropyridin-4-yl)ethynyl)phenyl)acetamide] | 1.26 ± 3.22 × 10^−3 ns | 7.11 M⁻¹ | –
